# The campaign covered roughly 580,000 compounds. About 6,100 (1.1%) were called active. Inconclusive means that the source gave no clear call. Such entries were picked first, then a sample of the others. The call rests on the fitted dose curve; in most records, active means well fitted inhibition curve with a large enough effect; inconclusive means small, poorly fitted or top-dose-only effect, or another doubt; inactive means no such curve, though single readings can be large or run the other way. A potency beside an inconclusive call is a rough fit, not a confirmed value.
# By UniProt entry, the sequences of proteins in these tests, tags left out. Where a name states a change or a piece, a line headed by the entry shows the natural chain unless it says otherwise.
# UniProt P18054: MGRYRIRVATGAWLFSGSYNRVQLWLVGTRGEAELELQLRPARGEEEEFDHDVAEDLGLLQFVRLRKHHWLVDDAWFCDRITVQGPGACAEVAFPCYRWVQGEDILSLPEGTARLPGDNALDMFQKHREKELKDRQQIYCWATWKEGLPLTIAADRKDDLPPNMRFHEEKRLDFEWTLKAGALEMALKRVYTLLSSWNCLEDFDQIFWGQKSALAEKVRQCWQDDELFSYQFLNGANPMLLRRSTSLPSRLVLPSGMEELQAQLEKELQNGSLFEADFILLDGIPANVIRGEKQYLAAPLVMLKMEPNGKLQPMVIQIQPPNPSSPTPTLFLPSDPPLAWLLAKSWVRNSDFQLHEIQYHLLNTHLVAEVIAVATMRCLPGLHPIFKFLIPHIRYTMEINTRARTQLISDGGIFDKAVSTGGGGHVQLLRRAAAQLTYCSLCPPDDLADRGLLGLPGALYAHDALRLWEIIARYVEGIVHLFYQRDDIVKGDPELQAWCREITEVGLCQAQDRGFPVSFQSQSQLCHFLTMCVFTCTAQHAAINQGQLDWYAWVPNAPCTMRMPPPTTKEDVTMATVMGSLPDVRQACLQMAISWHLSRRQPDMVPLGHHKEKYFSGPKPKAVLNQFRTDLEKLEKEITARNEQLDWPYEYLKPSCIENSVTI
# Biological target: Polyunsaturated fatty acid lipoxygenase ALOX12 (Homo sapiens) (UniProt P18054)
# Assay: Primary qHTS assay for inhibitors of human arachidonate 12S-lipoxygenase (ALOX12): Round 2
# Details: purified 12hLO, xylenol orange hydroperoxide absorbance; series mostly up to 108 µM
# Outline: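 Purified human 12hLO (150 nM final) in 25 mM Hepes, 0.01% Triton X-100, pH 7.0 was preincubated 15 min at room temperature with compound. Then 40 uM arachidonic acid was added, 30 min. Hydroperoxide was read by Fe-XO absorbance ratio 573/405 nm.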
# Potency means the concentration at half of the fitted maximal effect.
row,SMILES,Potency
1,S=c1[nH]nc(-c2ccco2)n1/N=C/c1ccc(Br)s1,"inconclusive: 39.8 µM [inhibitor, partial curve]"
2,Clc1ccccc1-c1nc(NC2CCNCC2)c2ccccc2n1,"inconclusive: 8.91 µM [inhibitor, full curve, poor fit]"
3,COC(=O)[C@]1(C)N[C@H](c2ccc(-c3cccc(Cl)c3)c(OC)c2)[C@@H]2C(=O)N(C)C(=O)[C@@H]21,"inconclusive: 25.1 µM [inhibitor, partial curve]"
4,COCCSc1ccccc1C(=O)Nc1cc(C)cc(C)c1,"inconclusive: 31.6 µM [inhibitor, partial curve, poor fit]"
5,O=C(CCN1C(=O)/C(=C/c2ccccc2)SC1=S)NCCCN1CCOCC1,"inconclusive: 89.1 µM [inhibitor, partial curve, poor fit]"
6,S=C(N/N=C/c1ccc(Cl)cc1)N1CCOCC1,"inconclusive: 50.1 µM [inhibitor, partial curve, poor fit]"
7,CC[C@@]1(C(=O)OC)N[C@H](CN(C)S(=O)(=O)c2ccc(F)cc2)[C@@H]2C(=O)N(C)C(=O)[C@@H]21,"inconclusive: 0.316 µM [inhibitor, full curve, poor fit]"
8,COc1cccc(CN2CCC(C(=O)Nc3ccccc3-c3cccc(OC)c3)CC2)c1,"inconclusive: 89.1 µM [inhibitor, single point]"
9,COc1ccccc1NC(=O)CC(=O)c1ccccc1,inactive
10,CCCc1nc2c(C)cc(C)cc2c(N)c1CC,"inconclusive: 1 µM [inhibitor, full curve, poor fit]"
11,CC(C)(C)c1cc(=O)n2[nH]c(N)nc2n1,inactive
12,C=CCN=C1NC(CCc2ccccc2)C(C(=O)OC)=C(C)N1Cc1ccccc1C(F)(F)F (stereo not drawn),"inconclusive: 89.1 µM [inhibitor, single point]"
13,COc1cc(CN(C(=O)c2ccccc2[N+](=O)[O-])c2ccccn2)cc(OC)c1OC,inactive
14,Cn1cccc1C(=O)NCC1COc2ccccc2O1 (stereo not drawn),"inconclusive: 56.2 µM [inhibitor, partial curve, poor fit]"
15,CCc1ccc2[nH]c3nc(N/N=C/c4ccc(O)cc4O)nnc3c2c1,inactive
16,CC(C)CCN1CCC(N2CCN(C(=O)c3ccc(F)cc3F)CC2)C1=O (stereo not drawn),"inconclusive: 7.94 µM [inhibitor, partial curve, poor fit]"
17,O=C(CN(Cc1ccco1)S(=O)(=O)c1ccccc1)Nc1ccc2c(c1)OC1(CCCCC1)O2,"inconclusive: 50.1 µM [inhibitor, partial curve, poor fit]"
18,FC(F)(F)c1ccccc1Cc1c(C2CCCCC2)nc2ccc(Br)cn12,"inconclusive: 25.1 µM [inhibitor, partial curve]"
19,Clc1ccc(-c2ccc(CNc3ncn[nH]3)o2)cc1,inactive
20,CC(=O)c1ccc(NS(=O)(=O)c2cc(-c3nc(-c4cccc(Cl)c4)no3)sc2C)cc1,inactive
21,Cc1ccc(-c2noc(CNc3ccccc3)n2)cc1,"inconclusive: 89.1 µM [inhibitor, partial curve, poor fit]"
22,OCCC1CN(Cc2nc(-c3ccc(F)cc3)cs2)CCN1CCc1ccccc1 (stereo not drawn),inactive

# A few values from above.
# Entry of O=C(CCN1C(=O)/C(=C/c2ccccc2)SC1=S)NCCCN1CCOCC1 under Potency: inconclusive: 89.1 µM [inhibitor, partial curve, poor fit]
# Entry of CC(C)CCN1CCC(N2CCN(C(=O)c3ccc(F)cc3F)CC2)C1=O (stereo not drawn) under Potency: inconclusive: 7.94 µM [inhibitor, partial curve, poor fit]
# Entry of CC(C)(C)c1cc(=O)n2[nH]c(N)nc2n1 under Potency: inactive

# Remaining list, next part:

row,SMILES,Potency
1,COc1cc(NC(=O)c2nc3ccccc3nc2OC)cc(OC)c1OC,inactive
2,CCc1nnc(NC(=O)c2ccc(S(=O)(=O)N(C)Cc3ccccc3)cc2)o1,inactive
3,O=C(CSCc1ccc(Cl)cc1)N1CCCCC1,inactive
4,CC(C)N1C(=O)C(O)(C2COC(C)(C)CC2=O)c2ccccc21 (stereo not drawn),"inconclusive: 79.4 µM [inhibitor, partial curve, poor fit]"
5,CN(C)c1ccc(/C=C/C(=O)c2ccc(O)cc2)cc1[N+](=O)[O-],"inconclusive: 22.4 µM [inhibitor, partial curve]"
6,CC(=O)N1N=C(c2cccs2)CC1c1cccs1 (stereo not drawn),"inconclusive: 3.98 µM [inhibitor, full curve, poor fit]"
7,OCCNc1nc(N2CCCCC2)nc2ccccc12,"inconclusive: 31.6 µM [inhibitor, partial curve]"
8,Nc1ccc(Cn2ccc3c4c(N)nc(N)nc4ccc32)cc1,"inconclusive: 39.8 µM [inhibitor, partial curve]"
9,Cc1noc(-c2cn(C3CCN(C(=O)c4cccc(C(F)(F)F)c4)C3)nn2)n1 (stereo not drawn),inactive
10,O=C1N=c2ccccc2=C1c1c(O)n(-c2cccc(F)c2)[nH]c1=O,"inconclusive: 17.8 µM [inhibitor, full curve]"
11,CCOc1ccccc1Nc1nc(-c2cccc(Cl)c2)c2c(n1)-c1ccccc1OC2,inactive
12,COC(=O)c1ccccc1NC(=S)NC(=O)c1cccc2ccccc12,active: 31.6 µM
13,CCN(CC)c1cc(CCC(=O)N2CCC(C)CC2)ccn1,inactive
14,CC(C)C(=O)N1CCN(c2ccc([N+](=O)[O-])cc2Cl)CC1,inactive
15,CN(C)CCN(C(=O)c1cccc2ccccc12)c1nc2cc3c(cc2s1)OCO3,"inconclusive: 17.8 µM [inhibitor, single point]"
16,COCCN1CCCCCC(O)c2cc(C(=O)NCC3CCCCC3)ccc21 (stereo not drawn),"inconclusive: 31.6 µM [inhibitor, partial curve, poor fit]"
17,CC(C)NC(=O)NC(=O)CSc1nnc(COc2ccccc2Cl)o1,"inconclusive: 39.8 µM [inhibitor, partial curve, poor fit]"
18,CCc1nnc(SCC(=O)N(C)c2ccccc2)c2cc3sccc3n12,"inconclusive: 31.6 µM [inhibitor, full curve, poor fit]"
19,CCCCCCSc1cccc(-c2nc3ccc(C)cn3c2NCc2ccccc2)c1,"inconclusive: 50.1 µM [inhibitor, partial curve, poor fit]"
20,Cc1cc(C)c(OCCCCCn2ccnc2)c(C)c1,"inconclusive: 50.1 µM [inhibitor, partial curve, poor fit]"
21,C/C(=N/Nc1ccc(S(=O)(=O)Nc2ccccc2)cc1[N+](=O)[O-])c1ccc(C#N)cc1,"inconclusive: 0.178 µM [inhibitor, full curve, poor fit]"

# From PubChem BioAssay AID1671190 (National Center for Advancing Translational Sciences (NCATS), 2021)
